# From article PMC11589570, “Critical assessment of LC3/GABARAP ligands used for degrader development and ligandability of LC3/GABARAP binding pockets” (Nature Communications, 2024)
# Values joined by “and” are separate entries in the source; they are usually repeats but may differ in a detail not shown here. Equal entries are not always repeated. The source gives many values for each of these; only a part stands here.
# Tested on: RPE1 cells
# Assay: Cell growth assay (IncuCyte confluence over 72 h)
# Assay type: cell-based
# How it was run: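 Phase confluence (% area covered by cells) imaged every 2 h for 72 h after compound addition; cells in DMEM/10% FBS, seeded 24 h before treatment. Controls were 0.1% DMSO, 250 nM Torin1 and 200 ng/mL Bafilomycin (final). Each point averages three wells.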
smiles,measurement,setting,value
O=C1Nc2ccc(Br)cc2C1=Cc1cc(O)c(O)c(Br)c1 [compound 1],RPE1 cell growth,"500 nM, time 22 h, listed as AN1",56 and 30 and 36
same,RPE1 cell growth,"500 nM, time 24 h, listed as AN1",63 and 32 and 38
same,RPE1 cell growth,"500 nM, time 26 h, listed as AN1",66 and 35 and 41
same,RPE1 cell growth,"500 nM, time 28 h, listed as AN1",70 and 38 and 41
same,RPE1 cell growth,"500 nM, time 30 h, listed as AN1",76 and 41 and 46
same,RPE1 cell growth,"500 nM, time 32 h, listed as AN1",81 and 45 and 50
same,RPE1 cell growth,"500 nM, time 34 h, listed as AN1",83 and 48 and 55
same,RPE1 cell growth,"500 nM, time 36 h, listed as AN1",87 and 50 and 58
same,RPE1 cell growth,"500 nM, time 38 h, listed as AN1",89 and 53 and 62
same,RPE1 cell growth,"500 nM, time 40 h, listed as AN1",92 and 57 and 65
same,RPE1 cell growth,"500 nM, time 42 h, listed as AN1",94 and 60 and 70
same,RPE1 cell growth,"500 nM, time 44 h, listed as AN1",97 and 65 and 75
same,RPE1 cell growth,"500 nM, time 46 h, listed as AN1",98 and 69 and 79
same,RPE1 cell growth,"500 nM, time 48 h, listed as AN1",99 and 73 and 84
same,RPE1 cell growth,"500 nM, time 50 h, listed as AN1",99 and 79 and 86
same,RPE1 cell growth,"500 nM, time 52 h, listed as AN1",100 and 84 and 90
same,RPE1 cell growth,"500 nM, time 54 h, listed as AN1",100 and 89 and 92
same,RPE1 cell growth,"500 nM, time 56 h, listed as AN1",100 and 91 and 95
same,RPE1 cell growth,"500 nM, time 58 h, listed as AN1",100 and 94 and 97
same,RPE1 cell growth,"500 nM, time 60 h, listed as AN1",100 and 96 and 98
same,RPE1 cell growth,"500 nM, time 62 h, listed as AN1",100 and 97 and 99
same,RPE1 cell growth,"500 nM, time 64 h, listed as AN1",100 and 99
same,RPE1 cell growth,"500 nM, time 66 h",100
same,RPE1 cell growth,"500 nM, time 68 h",100
same,RPE1 cell growth,"500 nM, time 70 h",100
same,RPE1 cell growth,"500 nM, time 72 h",100
same,RPE1 cell growth,"1 uM, 0 h, listed as AN1",16 and 29 and 20
same,RPE1 cell growth,"1 uM, 2 h, listed as AN1",18 and 34 and 20
same,RPE1 cell growth,"1 uM, 4 h, listed as AN1",20 and 36 and 21
same,RPE1 cell growth,"1 uM, 6 h, listed as AN1",21 and 40 and 22
same,RPE1 cell growth,"1 uM, 8 h, listed as AN1",23 and 42 and 22
same,RPE1 cell growth,"1 uM, 20 h, listed as AN1",48 and 35
same,RPE1 cell growth,"1 uM, 22 h, listed as AN1",33 and 54 and 39
same,RPE1 cell growth,"1 uM, 24 h, listed as AN1",35 and 60 and 40
same,RPE1 cell growth,"1 uM, 26 h, listed as AN1",37 and 62 and 44
same,RPE1 cell growth,"1 uM, 28 h, listed as AN1",38 and 67 and 46
same,RPE1 cell growth,"1 uM, 30 h, listed as AN1",41 and 67 and 50
same,RPE1 cell growth,"1 uM, 32 h, listed as AN1",45 and 75 and 54
same,RPE1 cell growth,"1 uM, 34 h, listed as AN1",49 and 79 and 56
same,RPE1 cell growth,"1 uM, 36 h, listed as AN1",52 and 81 and 61
same,RPE1 cell growth,"1 uM, 38 h, listed as AN1",55 and 84 and 64
same,RPE1 cell growth,"1 uM, 40 h, listed as AN1",59 and 77 and 69
same,RPE1 cell growth,"1 uM, 42 h, listed as AN1",60 and 90 and 72
same,RPE1 cell growth,"1 uM, 44 h, listed as AN1",67 and 93 and 78
same,RPE1 cell growth,"1 uM, 46 h, listed as AN1",72 and 94 and 82
same,RPE1 cell growth,"1 uM, 48 h, listed as AN1",76 and 97 and 87
same,RPE1 cell growth,"1 uM, 50 h, listed as AN1",81 and 98 and 91
same,RPE1 cell growth,"1 uM, 52 h, listed as AN1",84 and 66 and 95
same,RPE1 cell growth,"1 uM, 54 h, listed as AN1",88 and 99 and 97
same,RPE1 cell growth,"1 uM, 56 h, listed as AN1",91 and 99 and 98
same,RPE1 cell growth,"1 uM, 58 h, listed as AN1",94 and 100 and 99
same,RPE1 cell growth,"1 uM, 60 h, listed as AN1",96 and 100
same,RPE1 cell growth,"1 uM, 62 h, listed as AN1",98 and 100
same,RPE1 cell growth,"1 uM, 64 h, listed as AN1",98 and 100
same,RPE1 cell growth,"1 uM, 66 h, listed as AN1",99 and 100
same,RPE1 cell growth,"1 uM, 68 h, listed as AN1",99 and 100
same,RPE1 cell growth,"1 uM, 70 h",100
same,RPE1 cell growth,"1 uM, 72 h",100
same,RPE1 cell growth,"1 uM, time 20 h, listed as AN1",35 and 45 and 34
same,RPE1 cell growth,"1 uM, time 22 h, listed as AN1",38 and 48
same,RPE1 cell growth,"1 uM, time 24 h, listed as AN1",40 and 56 and 39
same,RPE1 cell growth,"1 uM, time 26 h, listed as AN1",42 and 58 and 43
same,RPE1 cell growth,"1 uM, time 28 h, listed as AN1",44 and 63 and 48
same,RPE1 cell growth,"1 uM, time 30 h, listed as AN1",47 and 69 and 52
same,RPE1 cell growth,"1 uM, time 32 h, listed as AN1",52 and 71 and 55
same,RPE1 cell growth,"1 uM, time 34 h, listed as AN1",56 and 74 and 59
same,RPE1 cell growth,"1 uM, time 36 h, listed as AN1",58 and 79 and 63
same,RPE1 cell growth,"1 uM, time 38 h, listed as AN1",63 and 83 and 67
same,RPE1 cell growth,"1 uM, time 40 h, listed as AN1",69 and 87 and 71
same,RPE1 cell growth,"1 uM, time 42 h, listed as AN1",73 and 90 and 74
same,RPE1 cell growth,"1 uM, time 44 h, listed as AN1",77 and 92 and 81
same,RPE1 cell growth,"1 uM, time 46 h, listed as AN1",81 and 94 and 84
same,RPE1 cell growth,"1 uM, time 48 h, listed as AN1",87 and 97 and 89
same,RPE1 cell growth,"1 uM, time 50 h, listed as AN1",90 and 98 and 93
same,RPE1 cell growth,"1 uM, time 52 h, listed as AN1",93 and 99 and 95
same,RPE1 cell growth,"1 uM, time 54 h, listed as AN1",95 and 99 and 98
same,RPE1 cell growth,"1 uM, time 56 h, listed as AN1",97 and 99
same,RPE1 cell growth,"1 uM, time 58 h, listed as AN1",99 and 100
same,RPE1 cell growth,"1 uM, time 60 h, listed as AN1",99 and 100
same,RPE1 cell growth,"1 uM, time 62 h",100
same,RPE1 cell growth,"1 uM, time 64 h",100
same,RPE1 cell growth,"1 uM, time 66 h",100
same,RPE1 cell growth,"1 uM, time 68 h",100
same,RPE1 cell growth,"1 uM, time 70 h",100
same,RPE1 cell growth,"1 uM, time 72 h",100
same,RPE1 cell growth,"3 uM, 0 h, listed as AN1",25 and 26 and 19
